The supplement of paper PMC12823440, “Inhibitors supercharge kinase turnover through native proteolytic circuits” (Nature, 2025)
Where a name gives a salt, the structure may show the parent alone. The list shows a part of the results. Hit calls seldom repeat between salt and free forms of one compound.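 Kinases were expressed as nanoluciferase fusions in K562 cells and luminescence was read every 4 h between 2 and 18 h as percent of control, DMSO set to 100% and a positive control to 0%. A time point counts as decreased when the signal drops significantly (2 sigma). The hit call is the authors' own, does not follow from the count of time points alone, and its rule is not shown.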

The chains behind the UniProt entries cited, without tags or fusion partners. Where a name states a change or a piece, a line headed by the entry shows the natural chain unless it says otherwise.
UniProt O96013: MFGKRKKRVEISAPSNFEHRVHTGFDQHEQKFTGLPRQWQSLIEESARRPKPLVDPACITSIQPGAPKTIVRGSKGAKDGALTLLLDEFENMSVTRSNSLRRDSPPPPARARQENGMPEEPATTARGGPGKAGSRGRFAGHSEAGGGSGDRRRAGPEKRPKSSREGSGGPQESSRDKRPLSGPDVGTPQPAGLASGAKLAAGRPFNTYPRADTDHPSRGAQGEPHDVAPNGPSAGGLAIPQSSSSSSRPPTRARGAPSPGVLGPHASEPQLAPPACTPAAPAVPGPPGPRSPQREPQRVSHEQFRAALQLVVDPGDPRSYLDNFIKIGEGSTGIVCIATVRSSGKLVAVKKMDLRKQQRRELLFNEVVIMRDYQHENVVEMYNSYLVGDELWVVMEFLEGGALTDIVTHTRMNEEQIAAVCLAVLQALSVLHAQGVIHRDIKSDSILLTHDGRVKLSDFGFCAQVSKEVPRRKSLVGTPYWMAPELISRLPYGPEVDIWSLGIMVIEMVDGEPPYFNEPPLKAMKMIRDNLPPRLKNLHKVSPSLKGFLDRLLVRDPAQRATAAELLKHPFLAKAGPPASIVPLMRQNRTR

target: PAK4 (UniProt O96013); assay: kinase-Nluc reporter destabilization hit call (1 = scored as downregulated) (binary); higher = compound decreases kinase abundance; conditions: K562; 2-18 h

kinase-Nluc reporter destabilization hit call, inactive:
CC(C1CC1)n1cnc2c(NCc3cccc(C(F)(F)F)c3)nc(NCCN(C)C)nc21 (stereo unspecified) (10 µM) 0
COc1cc2nc(NC3CC3)nc(NC3CCN(C(C)C)CC3)c2cc1OC (10 µM) 0
Cc1nn(CC(F)(F)F)cc1Nc1ncc(Br)c(NCc2ccc(S(N)(=O)=O)cc2)n1 (10 µM) 0
N#C/C(=C/c1ccc(O)c(O)c1)C(=O)N1CCc2ccccc21 [Tyrphostin AG 528] (10 µM) 0
Cc1nc2c(NCc3cccc(S(C)(=O)=O)c3)nccn2c1-c1ccc(O)c(F)c1 (10 µM) 0
CN(C)c1cc[n+](Cc2ccc(OCCOc3ccc(C[n+]4ccc(N(C)C)cc4)cc3)cc2)cc1 (10 µM) 0
O=C1CCC(N2C(=O)c3cccc(OCCCCCOc4ccc(CC(=O)Nc5cc(C6CCC6)[nH]n5)cc4)c3C2=O)C(=O)N1 (stereo unspecified) [PROTAC CDK9 Degrader-1] (10 µM) 0
CCOc1cc(=O)[nH]cc1-c1ccc(CC(=O)Nc2cc(C(C)(C)C(F)(F)F)on2)c(F)c1 (10 µM) 0
O=C(O)/C=C(\CCc1ccc(Cl)cc1)c1ccccc1 (10 µM) 0
CCc1c(C(=O)NNC(=O)[C@H](O)c2cc(F)cc(F)c2)ccc(O)c1C (10 µM) 0
O=c1cc(N2CCOCC2)oc2c(-c3cccc4c3sc3ccccc34)cccc12 (10 µM) 0
CN1CCN(c2ccc(-n3cc(-c4ccncc4OCC4CCNCC4)cn3)cc2)CC1 [MELK-8a (hydrochloride)] (10 µM) 0
Cc1ccc(C2CC(=O)NC(SCC(=O)Nc3nccs3)=C2C#N)cc1 (stereo unspecified) [Necrostatin-34] (10 µM) 0
CNc1cc2c(Nc3cccc(Br)c3)ncnc2cn1 (10 µM) 0
Cn1cc(-c2nc(N[C@@H]3CCCC[C@@H]3N)c(F)c3c2C(=O)NC3)cn1 [TAK-659 (hydrochloride)] (2 µM) 0
CC(=O)Nc1nc(C)c(-c2cc(C)c3c(c2)CN([C@@H](C)C2CC2)C3=O)s1 (10 µM) 0
CN(C)c1ccc(/C=C2\C(=O)Nc3ccccc32)c2ccccc12 (10 µM) 0
COc1ccc(-c2cc(=O)c3c(O)cc(O)cc3o2)cc1-c1c(O)cc(O)c2c(=O)cc(-c3ccc(O)cc3)oc12 [Bilobetin] (2.5 µM) 0
O=C(NCc1ccn[nH]1)c1cc([C@@H]2CCNC[C@H]2COc2ccc3c(c2)OCO3)ccc1F [GRK2-IN-1 (hydrochloride)] (10 µM) 0
Nc1ccc(C(=O)Nc2cccc(-c3nc(N4CCOCC4)c4oc5ncccc5c4n3)c2)cn1 (10 µM) 0
CCOC(=O)c1c(C)[nH]c(C=C2C(=O)Nc3ccccc32)c1C (10 µM) 0
CCCS(=O)(=O)N[C@H]1C[C@@H](N(C)c2ncnc3[nH]ccc23)C1 [Abrocitinib] (10 µM) 0
O=[N+]([O-])c1ccc(-c2nc(-c3ccc(F)cc3)c(-c3ccncc3)[nH]2)cc1 (10 µM) 0
O=C(O)c1c[nH]c2cc(Cl)c(-c3ccc(C4(O)CCC4)cc3)cc12 (10 µM) 0
CN1CCC(Nc2nc(Nc3ccc(Oc4ccccc4)cc3)c3c(=O)[nH]cc(Br)c3n2)CC1 (2.5 µM) 0
CO[C@]1(C(=O)N[C@@H](C)c2ccc(-n3cc(F)cn3)nc2)CC[C@H](c2nc(C)cc(Nc3cc(C)[nH]n3)n2)CC1 [Pralsetinib] (10 µM) 0
COc1c(Nc2ncc(Cl)c(N[C@H]3[C@@H](C(N)=O)[C@@H]4C=C[C@H]3C4)n2)ccc2c1CC[C@@H](N1CCOCC1)CC2 (10 µM) 0
CN1CCN(Cc2ccc(-c3cn(C4CCC(O)CC4)c4nc(NCCC5CC5)ncc34)cc2)CC1 (stereo unspecified) (2.5 µM) 0
C[C@@H]1COC(Nc2ccc3ncnc(Nc4ccc(OCc5nccs5)c(Cl)c4)c3c2)=N1 [Varlitinib] (10 µM) 0
CC(C)n1cnc2c(Nc3cccc(Cl)c3)nc(N[C@H]3CCCC[C@@H]3N)nc21 (2.5 µM) 0
Cc1n[nH]c2ncc(C(=O)N3CCC[C@H]3c3ccc(Cl)cc3)cc12 (10 µM) 0

Sorted by formula weight (low to high): 3 of the compounds above
kinase-Nluc reporter destabilization hit call, inactive:
N#C/C(=C/c1ccc(O)c(O)c1)C(=O)N1CCc2ccccc21 [Tyrphostin AG 528] (10 µM) 0
Cc1nc2c(NCc3cccc(S(C)(=O)=O)c3)nccn2c1-c1ccc(O)c(F)c1 (10 µM) 0
CC(C1CC1)n1cnc2c(NCc3cccc(C(F)(F)F)c3)nc(NCCN(C)C)nc21 (stereo unspecified) (10 µM) 0
